Test results from PMC7356578.
These are yes or no findings as the source states them, for the method shown. Some binding calls cover weakened binding; strength is not graded here.

Protein sequences, listed by entry. Tags and fused reporters are not part of them. Residues count along the entry.
UniProt P06870, residues 25-262: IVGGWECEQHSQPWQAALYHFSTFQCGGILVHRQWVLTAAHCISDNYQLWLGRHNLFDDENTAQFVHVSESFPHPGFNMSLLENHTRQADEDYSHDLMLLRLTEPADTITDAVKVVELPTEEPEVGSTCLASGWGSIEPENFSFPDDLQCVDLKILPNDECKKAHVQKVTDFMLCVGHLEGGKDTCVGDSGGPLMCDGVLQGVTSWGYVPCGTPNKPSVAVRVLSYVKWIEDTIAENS

Columns and labels:
[1] = biological target: Recombinant human tissue kallikrein 1 (KLK1), wild type (human) (UniProt P06870); test: SDS-stable covalent serpin-protease complex on reducing SDS-PAGE; as a1 but in the presence of low molecular weight heparin (LMWH); both purified
[2] = biological target: Recombinant human tissue kallikrein 1 (KLK1), wild type (human) (UniProt P06870); test: SDS-stable covalent serpin-protease complex on reducing SDS-PAGE; 2 µg rKAL with 0.5 µg KLK1, 3 min, room temperature, 20 µL PBS, in the presence of 1 mM heparin oligosaccharide DP8, DP10 or DP12; both purified

B1: Recombinant human kallistatin (rKAL), wild type (protein, UniProt P29622 45-427)
chain: GSPSLKIAPANADFAFRFYYLIASETPGKNIFFSPLSISAAYAMLSLGACSHSRSQILEGLGFNLTELSESDVHRGFQHLLHTLNLPGHGLETRVGSALFLSHNLKFLAKFLNDTMAVYEAKLFHTNFYDTVGTIQLINDHVKKETRGKIVDLVSELKKDVLMVLVNYIYFKALWEKPFISSRTTPKDFYVDENTTVRVPMMLQDQEHHWYLHDRYLPCSVLRMDYKGDATVFFILPNQGKMREIEEVLTPEMLMRWNNLLRKRNFYKKLELHLPKFSISGSYVLDQILPRLGFTDLFSKWADLSGITKQQKLEASKSFHKATLDVDEAGTEAAAATSFAIKFFSAQTNRHILRFNRPFLVVIFSTSTQSVLFLGKVVDPTKP
For B1, which binding [1] is on record?
Its binding is “binds weakly”.

And the binding [2]?
The binding was “binds weakly”.
